## Results of single-concentration screens

By UniProt entry, the sequences of proteins in these tests, tags left out.
UniProt P9WFT3, whole entry: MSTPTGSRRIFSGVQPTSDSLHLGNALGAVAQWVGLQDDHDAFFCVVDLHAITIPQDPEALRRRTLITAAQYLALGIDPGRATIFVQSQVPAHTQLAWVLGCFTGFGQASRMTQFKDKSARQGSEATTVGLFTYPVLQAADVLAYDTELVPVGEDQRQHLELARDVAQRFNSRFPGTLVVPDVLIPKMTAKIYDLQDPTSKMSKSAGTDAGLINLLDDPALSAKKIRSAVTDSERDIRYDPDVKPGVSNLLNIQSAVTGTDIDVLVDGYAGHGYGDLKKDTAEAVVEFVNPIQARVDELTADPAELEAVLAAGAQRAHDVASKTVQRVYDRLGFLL

Leishmania in macrophages: 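Cell assay of Leishmania donovani living inside macrophages; the read-out is not stated. Concentration: 30 µM. The record gives no direction; compounds that gave an IC50 in retests scored well above the rest, so higher reads as stronger inhibition. About 69,000 compounds were tested under these conditions; 1.5% (about 1,000) showed 50% or more at least once.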
MtTrpRS: 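Enzyme assay of tryptophanyl-tRNA synthetase; the read-out is not stated. Target: Tryptophan-tRNA ligase, Mycobacterium tuberculosis (UniProt P9WFT3). Compounds at 10 µM. Direction is not recorded; retested compounds ran higher, which suggests that high means inhibition. Size under these conditions: about 65,000 compounds, about 64 of them at 50% or above in at least one test.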
T. brucei: 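Whole-parasite assay of Trypanosoma brucei over 72 hours; the read-out is not stated. Concentration: 30 µM. Higher reads as stronger inhibition (inferred: compounds with an IC50 in retests scored well above the rest). Values scatter widely below zero; nearly all retest evidence comes from the higher of the two concentrations used. About 64,000 compounds were tested under these conditions; 1.5% (about 940) showed 50% or more at least once.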

Each number is a percent effect as filed. The controls that fix the scale are not given in the record; negative values are as filed. Compounds were drawn at random from those tested, without regard to their results. Two or more numbers in one place are separate tests of the same structure; such repeats can differ widely. A dash means the value is not listed here; it may have been measured.

compound,Leishmania in macrophages,MtTrpRS,T. brucei
O=C(c1ccnnc1)N1CCc2onc(CN3CCCC3)c2C1,5.167%,-7.123%,-
CC(=O)N1CCC2(CCCN(C(=O)c3ccc(Cl)c(C(F)(F)F)c3)C2)C1 (stereo unspecified),14.22%,-0.6975%,22.87%
NC(=O)CNC(c1ccccc1)c1ccc(OC(F)F)cc1 (stereo unspecified),33.44%,-1.052%,-52.85%
CC(C)n1cc(S(=O)(=O)NCCc2nnc3ccccn23)cn1,6.041%,-2.2%,-73.3%
O=C(NC1CC1)C1CCCN(c2cccc(C(F)(F)F)n2)C1 (stereo unspecified),-7.828%,0.9183%,-7.982%
CC(NC(=O)C1(NC(=O)c2ccc3[nH]ncc3c2)CCCC1)C1CC1 (stereo unspecified),2.772%,-1.821%,43.6%
CCN(CC)Cc1cn2c(n1)CN(C(=O)Cc1ccsc1)CC2.O=C(O)C(F)(F)F,19.37%,-,-36.74%
O=C(CCc1cc(O)no1)N1CCCC(COc2ccccc2F)C1 (stereo unspecified),9.028%,-3.293%,-30.97%
Cc1ccc(N2CCC3(CN(CCO)CCC3(F)F)C2)nn1.O=C(O)C(F)(F)F (stereo unspecified),39.18%,-,-47.87%
CC(C)C1CN(c2cccc(C#N)n2)CCCN1Cc1ccc(F)cc1 (stereo unspecified),14.99%,12.4%,99.78%
O=C(O)C(F)(F)F.O=C(O)C(F)(F)F.O=C(O)C(F)(F)F.[H][C@@]12CN(Cc3cccnc3)CCO[C@]1([H])CN(Cc1ccccc1OC)C2,-13.36%,-,-36.23%
CC(C)(C)c1nnc(CN2CCOC(Cn3cccn3)C2)o1 (stereo unspecified),15.62%,-0.3934%,7.751%
Cc1nnc(CN(C)C2CCN(Cc3nnc(C4CCC4)o3)C2)n1C (stereo unspecified),10.84%,-7.182%,-10.07%
Cc1nc(Nc2ccc(Cl)cn2)sc1C(=O)NCCCN1CCCCC1,16.21%,-1.273%,-4.195%
O=C(NC[C@]12COC[C@H]1CN(CC1CCOCC1)C2)c1ccccc1,-,-4.149%,-
O=C(CCN1CCCC1c1cccs1)N1CCc2sccc2C1 (stereo unspecified),27.64%,-0.2347%,-27.19%
CN1CCCN(CC(=O)N2CCc3[nH]c(-c4ccccc4)nc3C2)CC1,25.8%,-1.351%,-5.639%
Cc1c(CN2CC[C@@H](N3CCC(O)CC3)[C@H](O)C2)[nH]c2ccc(F)cc12,26.65%,-2.395%,-37.18%
COc1cc2cc(C)c(SCCN3CCCCC3)nc2cc1OC.Cl,17.62%,-,-
CCCS(=O)(=O)N1CCN(c2ccnc(N3CCCCC3)n2)CC1,2.744%,-2.651%,0.6224%
O=C(O)C(F)(F)F.[H][C@@]12CCCO[C@]1([H])[C@H](N1CCCC1)CN(C(=O)c1ccccc1)C2,-28.28% and 9.963%,-,-53.29%
COc1ccc(C[C@H]2CN(c3nnc(C)s3)CC[C@@H]2OC)cc1,-,-3.463%,-
O=C(O)c1cc(-c2ccncc2)cc(S(=O)(=O)N2CCSCC2)c1,1.441%,-8.351%,-27.72%
O=C(C1CN(Cc2ccsc2)Cc2ccnn2C1)N1CCCC1.O=C(O)C(F)(F)F.O=C(O)C(F)(F)F (stereo unspecified),-12.55% and 8.575%,-,-44.92%
O=C(CCc1nc(Cl)n[nH]1)N[C@H]1CC[C@H]1NC1Cc2ccccc2C1,24.54%,0.6387%,-7.991%
CN(C)C(=O)N1C[C@H](Oc2ccccn2)[C@H]2OCCC[C@H]21,-,0.7718%,-
CCc1nsc(N2CCn3c(nnc3-c3ccccc3)C2)n1,0.5833%,-1.398%,-33.29%
O=C(O)C(F)(F)F.[H][C@@]12CCN(Cc3cccc(C#N)c3)[C@@]1([H])CC(=O)N2C,41.78%,-,-87.11%
N#CCCN(Cc1ccccn1)C(=O)Nc1cccnc1,-18.08%,-0.0748%,-46.61%
CS(=O)(=O)NCC(=O)NC(Cc1ccccc1)C1CCCC1 (stereo unspecified),-26.21%,-0.7802%,-60.62%
CC(C)n1ncc2c1NC(=O)CC21C(=O)Nc2cc(Cl)cc(Cl)c21 (stereo unspecified),-17.73%,3.852%,-28.65%
Cc1nnsc1C(=O)NCc1cccnc1N(C)C,7.736%,-5.649%,10.19%
O=C(Cn1cccn1)N1CCC(c2nnc(C(F)(F)F)o2)CC1,-7.45%,7.274%,-6.676%
CC(C)CN1CCCC2(CCN(c3ccccn3)C2)C1 (stereo unspecified),-,8.296%,-
CC(c1cccc(-c2nccn2CCc2ccccn2)c1)N(C)C (stereo unspecified),23.36%,-0.5435%,-33.09%
CCCc1n[nH]c(C2CN(C(=O)CCn3cc(C)cn3)CCO2)n1 (stereo unspecified),-28.74%,1.004%,-
COc1ccc(-c2cc(C3(O)CCOC(C)(C)C3)on2)cc1 (stereo unspecified),-15.88%,1.417%,-12.07%
Cc1nc(C)n(CC2CCCCN2Cc2cscn2)n1 (stereo unspecified),17.27%,1.546%,6.023%
CN(C)C(=O)N1CCN(C(=O)c2ccc(Cl)cc2)CC2(CNC(=O)C2)C1 (stereo unspecified),-28.95%,9.558%,-12.2%
CCS(=O)(=O)c1ccc(N2CCC(NC(=O)C3CCCCC3)CC2)cc1,15.4%,-0.1564%,20.92%
[H][C@@]12CCN(C(=O)c3cnoc3C)C[C@]1([H])[C@@H](CN1CCCC1)OC2,5.899%,-,-20.14%
Cc1sc(-c2ccco2)nc1C(=O)N1CCCC1Cn1cccn1 (stereo unspecified),17.47%,2.982%,8.808%
O=C(O)C(F)(F)F.[H][C@]12CC[C@@]3(N=C(c4ccccc4)NC3=O)[C@@]1([H])CN(Cc1ccccc1)C2,40.77%,-,-9.739%
O=C(Nc1ccc(CCN2CCOCC2)cc1)C1CC1,9.01%,3.29%,-
O=C(O)C(F)(F)F.[H][C@@]12CCN(Cc3ccc(OC)cc3)C[C@]1([H])[C@@H](CNC(=O)N(C)C)OC2,29.68%,-,-7.221%
[H][C@]12CC[C@]([H])(CN(C(=O)c3ccc(C(C)=O)s3)C1)N(CC1CCC1)C2,31.2%,-,-12.16%
Cc1cccc(N2CCCC3(C2)CN(c2nncs2)CCO3)c1 (stereo unspecified),-5.626% and 2.326%,13.47%,-47.75%
C[C@@H]1CN(Cc2cn(C)nc2-c2ccccc2F)C[C@H](C)O1,16.78%,-1.354%,-51.2%
Cc1nc(CNC(=O)[C@@H]2CCCN2C(=O)OC(C)(C)C)cs1,15.65%,-3.232%,-22.95%
O=C(O)C(F)(F)F.[H][C@]12C[C@H](C(=O)NC)N(C)[C@@]1([H])CN(S(=O)(=O)c1ccc(OC)cc1)C2,-5.397%,-,-6.84%
Cc1cc(-c2cnc(N3CCCC(C)C3)nc2-c2cccnc2C)on1 (stereo unspecified),-,-2.592%,-
COc1cc(CCO)c(OC)c2c1OCO2,-1.328%,-5.008%,-9.826%
Cc1cc(F)c2c(c1)CCCN2S(=O)(=O)c1ncn(C)c1Cl,9.521%,4.852%,38.71%
Cc1cccc(C)c1OCCNC(=O)CN1CCN(C)CC1C (stereo unspecified),2.097%,13.26%,-
Cn1cc(-c2nc(CN3CCc4c(ncn4C4CC4)C3)cs2)cn1,33.44%,2.128%,6.937%
O=C(O)c1ccc(N2CCC(Cc3ccccc3)CC2)nn1,-0.9585% and 3.687%,-5.243%,14.58%
O=C(O)C(c1ccc2c(c1)OCO2)N1CCCCCC1 (stereo unspecified),28.47%,7.195%,0.5822%
O=C(Cc1ccc(F)cc1)N1CCn2cc(Cn3cccn3)nc2C1,-,3.4%,-
CCN1C[C@@H](C(=O)O)[C@H](c2cccc(OC)c2)C1,-4.746%,-2.034%,-10.4%
Fc1ccc(F)c(CN2CCC(c3cnccn3)CC2)c1,16.7%,-2.649%,-
Cc1ccc(C2CSCCN2C(=O)c2ccc(C(N)=O)cc2)o1 (stereo unspecified),7.343%,-2.012%,9.508%
COc1cccc(OCc2cc(C(=O)N3CC(O)C3)n[nH]2)c1,22.82%,2.678%,-14.21%
CCc1nnc2n1CCN(C(=O)CCOc1ccc(C)cc1C)C2,29.61%,-3.577%,-30.52%
CC(C)C(=O)Nc1ccc2c(c1)ncn2CC(=O)NCCN(C)C,1.255%,-1.877%,-7.76%
CCCn1ccnc1CN1CC[C@@H](NC(=O)c2cccnc2)[C@H](O)C1,-3.33%,2.292%,-14.07%
[H][C@@]12CCN(C(=O)CCC(C)C)C[C@]1(c1nc(C)no1)CCO2,-4.868%,-,-7.549%
Cl.Cl.O=C([C@H]1CCCN1)N1CC2(CCNCC2)c2cc(Cl)ccc21,35.2%,-,11.24%
Cc1noc(C)c1CN1CC[C@@H]2O[C@H](COCC(C)C)CC[C@@H]21,-,-1.208%,-
Cc1noc(C)c1CN(C)c1nc(C2CCCC2)nc2c1cnn2C,-13.31%,1.321%,-33.31%
CC(C)c1noc(CCC(=O)N(CC2CCOC2)C2CC2)n1 (stereo unspecified),-56.48%,0%,21.71%

Some entries from above, unchanged:

| compound | Leishmania in macrophages | MtTrpRS | T. brucei |
|---|---|---|---|
| `CC(C)CN1CCCC2(CCN(c3ccccn3)C2)C1` (stereo unspecified) | - | 8.296% | - |
| `O=C(O)C(F)(F)F.[H][C@@]12CCN(Cc3cccc(C#N)c3)[C@@]1([H])CC(=O)N2C` | 41.78% | - | -87.11% |
| `Cc1ccc(C2CSCCN2C(=O)c2ccc(C(N)=O)cc2)o1` (stereo unspecified) | 7.343% | -2.012% | 9.508% |
| `Cc1noc(C)c1CN1CC[C@@H]2O[C@H](COCC(C)C)CC[C@@H]21` | - | -1.208% | - |
| `O=C(O)C(F)(F)F.[H][C@]12CC[C@@]3(N=C(c4ccccc4)NC3=O)[C@@]1([H])CN(Cc1ccccc1)C2` | 40.77% | - | -9.739% |
| `O=C(NC[C@]12COC[C@H]1CN(CC1CCOCC1)C2)c1ccccc1` | - | -4.149% | - |
| `Cc1nnsc1C(=O)NCc1cccnc1N(C)C` | 7.736% | -5.649% | 10.19% |
| `CC(C)n1ncc2c1NC(=O)CC21C(=O)Nc2cc(Cl)cc(Cl)c21` (stereo unspecified) | -17.73% | 3.852% | -28.65% |
| `CCc1nsc(N2CCn3c(nnc3-c3ccccc3)C2)n1` | 0.5833% | -1.398% | -33.29% |

Data taken from ChEMBL document CHEMBL3988442, “University of Dundee, Small-Polar-MMV Screening Library” (2021).